In article doi:10.1101/2022.05.16.492168:
Results are given in words; binding and its absence hold for the method and conditions named. Binding seen in cells or lysates may run through a third protein. Here binding means that the protein was enriched with, or labelled near, the bait; the list need not be complete. For some of these results: Tags and fused reporters may be left off the sequences shown.

Amino acid sequences for entries named in this document (tags omitted). A change or cut given only in a name is not applied to a line headed by its entry.
UniProt Q8L8T7: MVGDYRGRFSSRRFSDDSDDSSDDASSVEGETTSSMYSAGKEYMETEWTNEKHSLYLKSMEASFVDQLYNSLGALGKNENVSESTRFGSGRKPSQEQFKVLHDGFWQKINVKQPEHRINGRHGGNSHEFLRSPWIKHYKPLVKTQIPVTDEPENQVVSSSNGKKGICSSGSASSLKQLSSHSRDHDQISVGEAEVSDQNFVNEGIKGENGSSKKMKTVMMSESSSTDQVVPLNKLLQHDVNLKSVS

T1: LNK1-HFC (NIGHT LIGHT INDUCIBLE AND CLOCK REGULATED 1 with 3x-FLAG-6x-His C-terminal tag) (Arabidopsis thaliana) (UniProt A8MQN2)
T1 sequence: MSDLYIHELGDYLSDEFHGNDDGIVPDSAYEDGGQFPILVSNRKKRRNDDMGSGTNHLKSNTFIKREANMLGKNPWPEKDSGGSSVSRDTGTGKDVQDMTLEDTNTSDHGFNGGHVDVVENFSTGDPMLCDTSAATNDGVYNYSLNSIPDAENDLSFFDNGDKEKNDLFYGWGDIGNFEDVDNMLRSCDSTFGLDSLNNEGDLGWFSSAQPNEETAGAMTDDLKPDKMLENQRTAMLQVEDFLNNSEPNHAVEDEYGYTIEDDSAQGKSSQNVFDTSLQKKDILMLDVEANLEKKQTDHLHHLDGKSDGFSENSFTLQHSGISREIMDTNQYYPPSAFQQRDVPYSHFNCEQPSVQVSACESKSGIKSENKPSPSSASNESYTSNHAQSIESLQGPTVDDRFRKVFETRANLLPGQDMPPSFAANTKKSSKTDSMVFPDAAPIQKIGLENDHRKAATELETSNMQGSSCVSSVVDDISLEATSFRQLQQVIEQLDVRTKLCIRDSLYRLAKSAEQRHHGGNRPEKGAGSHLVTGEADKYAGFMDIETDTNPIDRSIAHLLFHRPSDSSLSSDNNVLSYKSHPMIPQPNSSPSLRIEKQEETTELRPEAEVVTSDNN

T2: LNK2-HFC (NIGHT LIGHT INDUCIBLE AND CLOCK REGULATED 2 with 3x-FLAG-6x-His C-terminal tag) (Arabidopsis thaliana) (UniProt F4JCX9)
T2 sequence: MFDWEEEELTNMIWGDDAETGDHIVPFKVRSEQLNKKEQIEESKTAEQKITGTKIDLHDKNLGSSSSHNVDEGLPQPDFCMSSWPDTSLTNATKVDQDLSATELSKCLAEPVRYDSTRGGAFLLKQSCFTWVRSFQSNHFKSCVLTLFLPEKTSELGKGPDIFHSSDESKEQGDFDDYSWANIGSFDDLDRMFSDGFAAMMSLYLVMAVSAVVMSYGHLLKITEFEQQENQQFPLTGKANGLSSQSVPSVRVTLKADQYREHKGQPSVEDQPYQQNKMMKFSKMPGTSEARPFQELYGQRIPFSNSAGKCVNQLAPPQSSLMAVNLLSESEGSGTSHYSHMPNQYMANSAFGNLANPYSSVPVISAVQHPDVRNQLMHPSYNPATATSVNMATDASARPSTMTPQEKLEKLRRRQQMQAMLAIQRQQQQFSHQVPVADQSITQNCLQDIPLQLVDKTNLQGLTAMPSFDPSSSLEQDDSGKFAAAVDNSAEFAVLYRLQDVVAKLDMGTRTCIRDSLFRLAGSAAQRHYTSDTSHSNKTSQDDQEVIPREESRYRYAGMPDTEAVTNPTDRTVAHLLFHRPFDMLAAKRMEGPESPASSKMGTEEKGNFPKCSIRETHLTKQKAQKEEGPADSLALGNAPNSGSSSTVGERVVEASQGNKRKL

T3: GFP-COR28 (COLD REGULATED GENE 28) (Arabidopsis thaliana) (UniProt Q8L983)
T3 sequence: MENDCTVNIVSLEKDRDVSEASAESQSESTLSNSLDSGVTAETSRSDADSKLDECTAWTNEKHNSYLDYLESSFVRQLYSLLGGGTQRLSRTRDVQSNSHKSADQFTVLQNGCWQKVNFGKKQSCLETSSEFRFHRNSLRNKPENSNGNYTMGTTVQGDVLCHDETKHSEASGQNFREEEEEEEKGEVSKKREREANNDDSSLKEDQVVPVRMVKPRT


Experiments:
Assay in all cases: affinity purification with mass spectrometry
[1] = target: T1, LNK1-HFC (NIGHT LIGHT INDUCIBLE AND CLOCK REGULATED 1 with 3x-FLAG-6x-His C-terminal tag) (Arabidopsis thaliana)
[2] = target: T2, LNK2-HFC (NIGHT LIGHT INDUCIBLE AND CLOCK REGULATED 2 with 3x-FLAG-6x-His C-terminal tag) (Arabidopsis thaliana)
[3] = target: YFP-COR27 (COLD REGULATED GENE 27) (Arabidopsis thaliana) (UniProt Q8L8T7)
[4] = target: T3, GFP-COR28 (COLD REGULATED GENE 28) (Arabidopsis thaliana)

Row | Binder | binding [1] | binding [2] | binding [3] | binding [4]
1 | REVEILLE 3 (RVE3) (protein, UniProt Q6R0H0 1-287) MVTVNPSQAHCLPMKMSLPGFNTLPHTATTIPVSIRSNRTMSFFEDPTKKVRKPYTITKSRENWTEQEHDKFLEALHLFDRDWKKIKAFVGSKTVIQIRSHAQKYFLKVQKNGTKEHLPPPRPKRKANHPYPQKAPKFTLSSSNALFQHDYLYNTNSHPVISTTRKHGLVHCDVSIPSSVIKEEFGVSENCCSTSSSRDKQRTRIVTETNDQESCGKPHRVAPNFAEVYNFIGSVFDPKTTGHVKRLKEMDPINLETVLLLMKNLSVNLTSPEFDEQRKLISSYNAS | binds | binds | – | –
2 | REVEILLE 4 (RVE4) (protein, UniProt Q6R0G4 1-293) MTSTNPVVAEVIPAETSTDATETTIATTEAGEAPEKKVRKAYTITKSRESWTEGEHDKFLEALQLFDRDWKKIEDFVGSKTVIQIRSHAQKYFLKVQKNGTLAHVPPPRPKRKAAHPYPQKASKNAQMSLHVSMSFPTQINNLPGYTPWDDDTSALLNIAVSGVIPPEDELDTLCGAEVDVGSNDMISETSPSASGIGSSSRTLSDSKGLRLAKQAPSMHGLPDFAEVYNFIGSVFDPDSKGRMKKLKEMDPINFETVLLLMRNLTVNLSNPDFEPTSEYVDAAEEGHEHLSS | binds | binds | – | –
3 | NIGHT LIGHT INDUCIBLE AND CLOCK REGULATED 2 (LNK2), endogenous (protein, UniProt F4JCX9 1-663) MFDWEEEELTNMIWGDDAETGDHIVPFKVRSEQLNKKEQIEESKTAEQKITGTKIDLHDKNLGSSSSHNVDEGLPQPDFCMSSWPDTSLTNATKVDQDLSATELSKCLAEPVRYDSTRGGAFLLKQSCFTWVRSFQSNHFKSCVLTLFLPEKTSELGKGPDIFHSSDESKEQGDFDDYSWANIGSFDDLDRMFSDGFAAMMSLYLVMAVSAVVMSYGHLLKITEFEQQENQQFPLTGKANGLSSQSVPSVRVTLKADQYREHKGQPSVEDQPYQQNKMMKFSKMPGTSEARPFQELYGQRIPFSNSAGKCVNQLAPPQSSLMAVNLLSESEGSGTSHYSHMPNQYMANSAFGNLANPYSSVPVISAVQHPDVRNQLMHPSYNPATATSVNMATDASARPSTMTPQEKLEKLRRRQQMQAMLAIQRQQQQFSHQVPVADQSITQNCLQDIPLQLVDKTNLQGLTAMPSFDPSSSLEQDDSGKFAAAVDNSAEFAVLYRLQDVVAKLDMGTRTCIRDSLFRLAGSAAQRHYTSDTSHSNKTSQDDQEVIPREESRYRYAGMPDTEAVTNPTDRTVAHLLFHRPFDMLAAKRMEGPESPASSKMGTEEKGNFPKCSIRETHLTKQKAQKEEGPADSLALGNAPNSGSSSTVGERVVEASQGNKRKL | – | – | binds | –
4 | PHYD (protein, UniProt P42497 1-1164) MVSGGGSKTSGGEAASSGHRRSRHTSAAEQAQSSANKALRSQNQQPQNHGGGTESTNKAIQQYTVDARLHAVFEQSGESGKSFDYSQSLKTAPYDSSVPEQQITAYLSRIQRGGYTQPFGCLIAVEESTFTIIGYSENAREMLGLMSQSVPSIEDKSEVLTIGTDLRSLFKSSSYLLLERAFVAREITLLNPIWIHSNNTGKPFYAILHRVDVGILIDLEPARTEDPALSIAGAVQSQKLAVRAISHLQSLPSGDIKLLCDTVVESVRDLTGYDRVMVYKFHEDEHGEVVAESKRNDLEPYIGLHYPATDIPQASRFLFKQNRVRMIVDCYASPVRVVQDDRLTQFICLVGSTLRAPHGCHAQYMTNMGSIASLAMAVIINGNEEDGNGVNTGGRNSMRLWGLVVCHHTSARCIPFPLRYACEFLMQAFGLQLNMELQLALQVSEKRVLRMQTLLCDMLLRDSPAGIVTQRPSIMDLVKCNGAAFLYQGKYYPLGVTPTDSQINDIVEWLVANHSDSTGLSTDSLGDAGYPRAAALGDAVCGMAVACITKRDFLFWFRSHTEKEIKWGGAKHHPEDKDDGQRMNPRSSFQTFLEVVKSRCQPWETAEMDAIHSLQLILRDSFKESEAMDSKAAAAGAVQPHGDDMVQQGMQEIGAVAREMVRLIETATVPIFAVDIDGCINGWNAKIAELTGLSVEDAMGKSLVRELIYKEYKETVDRLLSCALKGDEGKNVEVKLKTFGSELQGKAMFVVVNACSSKDYLNNIVGVCFVGQDVTGHKIVMDKFINIQGDYKAIIHSPNPLIPPIFAADENTCCLEWNTAMEKLTGWPRSEVIGKLLVREVFGSYCRLKGPDALTKFMIVLHNAIGGQDTDKFPFPFFDRKGEFIQALLTLNKRVSIDGKIIGAFCFLQIPSPELQQALEVQRRQESEYFSRRKELAYIFQVIKNPLSGLRFTNSLLEDMDLNEDQKQLLETSVSCEKQISKIVGDMDVKSIDDGSFLLERTEFFIGNVTNAVVSQVMLVVRERNLQLIRNIPTEVKSMAVYGDQIRLQQVLAEFLLSIVRYAPMEGSVELHLCPTLNQMADGFSAVRLEFRMACAGEGVPPEKVQDMFHSSRWTSPEGLGLSVCRKILKLMNGGVQYIREFERSYFLIVIELPVPLMMMMPSS | – | – | binds | binds

Next, values leading:

Row | binding [1] | binding [2] | binding [3] | binding [4] | Binder
5 | binds | binds | – | – | REVEILLE 8 (RVE8), endogenous (protein, UniProt Q8RWU3 1-298) MSSSPSRNPTNAEAPPPPPTSTDAVAEGSSKKVRKPYTITKSRESWTEEEHDKFLEALQLFDRDWKKIEDFVGSKTVIQIRSHAQKYFLKVQKNGTLAHVPPPRPKRKAAHPYPQKASKNAQMPLQVSTSFTTTRNGDMPGYASWDDASMLLNRVISPQHELATLRGAEADIGSKGLLNVSSPSTSGMGSSSRTVSGSEIVRKAKQPPVLHGVPDFAEVYNFIGSVFDPETRGHVEKLKEMDPINFETVLLLMRNLTVNLSNPDLESTRKVLLSYDNVTTELPSVVSLVKNSTSDKSA
6 | – | – | – | binds | SPA4 (protein, UniProt Q94BM7 1-794) MKGSSESSSRGLNNTSGVSEFCTDGSKSLSHIDYVRSLLGSHKEANLGGLDDDSIVRALECEDVSLRQWLDNPDRSVDAFECFHVFRQIVEIVNAAHSQGIVVHNVRPSCFVMSSFNNVSFIESASCSDSGSDEDATTKSREIGSSRQEEILSERRSKQQEEVKKQPFPMKQILAMEMSWYTSHEEDNGSLCNCASDIYRLGVLLFELFCPVSSREEKSRTMSSLRHRVLPPQILLNWPKEASFCLWLLHPEPSCRPSMSELLQSEFINEPRENLEEREAAMELRDRIEEQELLLEFLFLIQQRKQEAADKLQDTISLLSSDIDQVVKRQLVLQQKGRDVRSFLASRKRIRQGAETTAAEEENDDNSIDEESKLDDTLESTLLESSRLMRNLKKLESVYFATRYRQIKAATAAEKPLARYYSALSCNGRSSEKSSMSQPSKDPINDSRQGGWIDPFLEGLCKYLSFSKLRVKADLKQGDLLNSSNLVCAIGFDRDGEFFATAGVNKKIKIFECESIIKDGRDIHYPVVELASRSKLSGICWNSYIKSQVASSNFEGVVQVWDVARNQLVTEMKEHEKRVWSIDYSSADPTLLASGSDDGSVKLWSINQGVSIGTIKTKANICCVQFPSETGRSLAFGSADHKVYYYDLRNPKLPLCTMIGHHKTVSYVRFVDSSTLVSSSTDNTLKLWDLSMSISGINETPLHSFMGHTNVKNFVGLSVSDGYIATGSETNEVFVYHKAFPMPVLSYKFKTIDPVSELEVDDASQFISSVCWRGQSSTLVAANSTGNIKILEMV
